This continues a long series; more values of the same kind are listed elsewhere. Where a SMILES comes first, the peptide text is derived from it. Bridges are numbered along the chain shown (N, C = ends). [ ]: non-standard residue; d: D form. The star is where a group is joined. Heptanoyl(5-Me) = CCC(C)CCCC(=O)*; Dab = NCC[C@H](N)C(=O)O
Tests used:
Conditions in all cases: growth mode: biofilm, 24 h; exposure time: 24 h
tobramycin [1] = compound: T1, NC[C@H]1O[C@H](O[C@H]2[C@H](O)[C@@H](O[C@H]3O[C@H](CO)[C@@H](O)[C@H](N)[C@H]3O)[C@H](N)C[C@@H]2N)[C@H](N)C[C@@H]1O [tobramycin]; assay: minimum concentration of killing, 4-log CFU reduction of biofilm (MCK99.99); higher = more biofilm tolerance
Description: (§1)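 Clinical P. aeruginosa isolates were grown as static biofilms for 24 h at 37 °C in LB in half-area 96-well plates, then exposed for 24 h to tobramycin at 1, 4, 16, 64, 256 or […]. Surviving CFU were counted by spotting serial dilutions. MCK is the lowest tested concentration giving the stated log reduction in CFU versus an untreated control; '>1024' means the reduction was not reached at the top dose, and 1 is the lowest dose tested (≤1).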

colistin [2] = compound: T2, CCC(C)CCCC(=O)N[C@@H](CCN)C(=O)N[C@H](C(=O)N[C@@H](CCN)C(=O)N[C@H]1CCNC(=O)[C@H]([C@@H](C)O)NC(=O)[C@H](CCN)NC(=O)[C@H](CCN)NC(=O)[C@H](CC(C)C)NC(=O)[C@@H](CC(C)C)NC(=O)[C@H](CCN)NC1=O)[C@@H](C)O [colistin]; assay: minimum concentration eradicating biofilm below detection limit (MCK-E); higher = more biofilm tolerance
Description: as §1, with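 “colistin” for “tobramycin”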

tobramycin [3] = compound: T1, tobramycin; assay: as above
Description: as §1

colistin [4] = compound: T2, colistin; assay: minimum concentration of killing, 2-log CFU reduction of biofilm (MCK99); higher = more biofilm tolerance
Description: as §1, with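 “colistin” for “tobramycin”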

colistin [5] = compound: T2, colistin; assay: minimum concentration of killing, 1-log CFU reduction of biofilm (MCK90); higher = more biofilm tolerance
Description: as §1, with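 “colistin” for “tobramycin”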

tobramycin [6] = compound: T1, tobramycin; assay: minimum concentration of killing, 2-log CFU reduction of biofilm (MCK99); higher = more biofilm tolerance
Description: as §1

tobramycin [7] = compound: T1, tobramycin; assay: minimum concentration of killing, 1-log CFU reduction of biofilm (MCK90); higher = more biofilm tolerance
Description: as §1

colistin [8] = compound: T2, colistin; assay: minimum concentration of killing, 4-log CFU reduction of biofilm (MCK99.99); higher = more biofilm tolerance
Description: as §1, with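 “colistin” for “tobramycin”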

Test System	minimum concentration of killing (tobramycin [1]) [µg/mL]	minimum concentration eradicating biofilm below detection limit (colistin [2]) [µg/mL]	minimum concentration eradicating biofilm below detection limit (tobramycin [3]) [µg/mL]	minimum concentration of killing (colistin [4]) [µg/mL]	minimum concentration of killing (colistin [5]) [µg/mL]	minimum concentration of killing (tobramycin [6]) [µg/mL]	minimum concentration of killing (tobramycin [7]) [µg/mL]	minimum concentration of killing (colistin [8]) [µg/mL]
Pseudomonas aeruginosa clinical isolate CH2734	256	256	256	256	64	64	≤ 1	256
Pseudomonas aeruginosa clinical isolate CH2735	256	256	256	64	64	4	≤ 1	256
Pseudomonas aeruginosa clinical isolate CH2747	16	256	64	64	64	≤ 1	≤ 1	256
Pseudomonas aeruginosa clinical isolate CH2756	64	256	256	256	256	64	≤ 1	256
Pseudomonas aeruginosa clinical isolate CH2764	256	256	1020	256	≤ 1	4	4	256
Pseudomonas aeruginosa clinical isolate CH2824	64	256	64	64	64	≤ 1	≤ 1	256
Pseudomonas aeruginosa clinical isolate CH2829	256	256	256	64	16	64	64	256
Pseudomonas aeruginosa clinical isolate CH2848	64	256	256	256	64	16	16	256
Pseudomonas aeruginosa clinical isolate CH2860	256	256	256	256	16	64	64	256
Pseudomonas aeruginosa clinical isolate CH2875	1020	256	1020	256	16	4	≤ 1	256
Pseudomonas aeruginosa clinical isolate CH2922	64	256	256	256	256	4	4	256
Pseudomonas aeruginosa clinical isolate CH2939	256	256	1020	256	64	64	4	256
Pseudomonas aeruginosa clinical isolate CH3177	256	256	256	64	64	64	≤ 1	256
Pseudomonas aeruginosa clinical isolate CH3290	1020	256	> 1020	256	64	1020	256	256
Pseudomonas aeruginosa clinical isolate CH3325	256	256	256	256	256	64	4	256
Pseudomonas aeruginosa clinical isolate CH3466	256	256	256	256	256	256	16	256
Pseudomonas aeruginosa clinical isolate CH3484	64	256	256	256	256	64	16	256
Pseudomonas aeruginosa clinical isolate CH3549	256	256	1020	256	64	64	≤ 1	256
Pseudomonas aeruginosa clinical isolate CH3797	1020	256	> 1020	256	64	1020	16	256
Pseudomonas aeruginosa clinical isolate CH3882	256	256	> 1020	256	16	16	≤ 1	256

Test System	minimum concentration of killing (tobramycin [1]) [µg/mL]	minimum concentration eradicating biofilm below detection limit (colistin [2]) [µg/mL]	minimum concentration eradicating biofilm below detection limit (tobramycin [3]) [µg/mL]	minimum concentration of killing (colistin [4]) [µg/mL]	minimum concentration of killing (colistin [5]) [µg/mL]	minimum concentration of killing (tobramycin [6]) [µg/mL]	minimum concentration of killing (tobramycin [7]) [µg/mL]	minimum concentration of killing (colistin [8]) [µg/mL]
Pseudomonas aeruginosa clinical isolate CH3906	16	256	16	256	256	4	≤ 1	256
Pseudomonas aeruginosa clinical isolate CH4083	256	256	1020	256	256	4	4	256
Pseudomonas aeruginosa clinical isolate CH4418	1020	256	1020	256	256	64	64	256
Pseudomonas aeruginosa clinical isolate CH4438	1020	256	1020	256	256	16	16	256
Pseudomonas aeruginosa clinical isolate CH4443	> 1020	256	> 1020	256	256	> 1020	> 1020	256
Pseudomonas aeruginosa clinical isolate CH4446	256	256	256	64	64	64	16	256
Pseudomonas aeruginosa clinical isolate CH4489	1020	64	1020	64	16	16	16	64
Pseudomonas aeruginosa clinical isolate CH4509	256	256	256	256	256	64	64	256
Pseudomonas aeruginosa clinical isolate CH4520	64	256	64	256	16	4	≤ 1	256
Pseudomonas aeruginosa clinical isolate CH4528	256	256	1020	256	256	256	4	256
Pseudomonas aeruginosa clinical isolate CH4549	256	256	256	256	256	64	16	256
Pseudomonas aeruginosa clinical isolate CH4584	256	256	> 1020	256	256	256	256	256
Pseudomonas aeruginosa clinical isolate CH4591	64	256	256	64	16	16	4	256
Pseudomonas aeruginosa clinical isolate CH4602	64	256	256	256	64	16	16	256
Pseudomonas aeruginosa clinical isolate CH4634	> 1020	256	> 1020	256	256	1020	64	256
Pseudomonas aeruginosa clinical isolate CH4684	64	256	256	64	64	≤ 1	≤ 1	256
Pseudomonas aeruginosa clinical isolate CH4703	> 1020	64	> 1020	16	16	> 1020	1020	64
Pseudomonas aeruginosa clinical isolate CH4755	256	256	256	256	256	64	64	256
Pseudomonas aeruginosa clinical isolate CH4757	64	256	64	64	64	16	≤ 1	256
Pseudomonas aeruginosa clinical isolate CH4766	256	256	1020	256	256	64	64	256

Source: the supplement of paper PMC8920030
